Results on 1 molecule are retold here after PMC4312763 (Protein & Cell, 2014).

No constants are given. Whether binding was seen depends on the method and setting. Some results given as binding are weak or reduced against the parent protein; the word gives no strength.

The target of this test is cytosolic domain of human ATL-1 (human) (UniProt Q8WXF7). Put plainly: AUC; sedimentation velocity, 4°C, protein 0.03 mmol/L, 50 mmol/L Tris pH 8.0, 5 mmol/L MgCl2, 1 mmol/L DTT, 1 mmol/L GDP; monomer to dimer; both purified.

B1: cytosolic domain of human ATL-1 (domain or fragment, UniProt Q8WXF7 18-447, looked up)
chain: TYEWSSEEEEPVKKAGPVQVLIVKDDHSFELDETALNRILLSEAVRDKEVVAVSVAGAFRKGKSFLMDFMLRYMYNQESVDWVGDYNEPLTGFSWRGGSERETTGIQIWSEIFLINKPDGKKVAVLLMDTQGTFDSQSTLRDSATVFALSTMISSIQVYNLSQNVQEDDLQHLQLFTEYGRLAMEETFLKPFQSLIFLVRDWSFPYEFSYGADGGAKFLEKRLKVSGNQHEELQNVRKHIHSCFTNISCFLLPHPGLKVATNPNFDGKLKEIDDEFIKNLKILIPWLLSPESLDIKEINGNKITCRGLVEYFKAYIKIYQGEELPHPKSMLQATAEANNLAAVATAKDTYNKKMEEICGGDKPFLAPNDLQTKHLQLKEESVKLFRGVKKMGGEEFSRRYLQQLESEIDELYIQYIKHNDSKNIFHAART
Turning to B1, the binding entry is reported as “binds weakly”.
